One molecule from PMC5117208 can be followed below.

By UniProt entry, the sequences of proteins in these tests, tags left out. Where a name states a change or a piece, a line headed by the entry shows the natural chain unless it says otherwise. Residues count along the entry.
UniProt Q92736: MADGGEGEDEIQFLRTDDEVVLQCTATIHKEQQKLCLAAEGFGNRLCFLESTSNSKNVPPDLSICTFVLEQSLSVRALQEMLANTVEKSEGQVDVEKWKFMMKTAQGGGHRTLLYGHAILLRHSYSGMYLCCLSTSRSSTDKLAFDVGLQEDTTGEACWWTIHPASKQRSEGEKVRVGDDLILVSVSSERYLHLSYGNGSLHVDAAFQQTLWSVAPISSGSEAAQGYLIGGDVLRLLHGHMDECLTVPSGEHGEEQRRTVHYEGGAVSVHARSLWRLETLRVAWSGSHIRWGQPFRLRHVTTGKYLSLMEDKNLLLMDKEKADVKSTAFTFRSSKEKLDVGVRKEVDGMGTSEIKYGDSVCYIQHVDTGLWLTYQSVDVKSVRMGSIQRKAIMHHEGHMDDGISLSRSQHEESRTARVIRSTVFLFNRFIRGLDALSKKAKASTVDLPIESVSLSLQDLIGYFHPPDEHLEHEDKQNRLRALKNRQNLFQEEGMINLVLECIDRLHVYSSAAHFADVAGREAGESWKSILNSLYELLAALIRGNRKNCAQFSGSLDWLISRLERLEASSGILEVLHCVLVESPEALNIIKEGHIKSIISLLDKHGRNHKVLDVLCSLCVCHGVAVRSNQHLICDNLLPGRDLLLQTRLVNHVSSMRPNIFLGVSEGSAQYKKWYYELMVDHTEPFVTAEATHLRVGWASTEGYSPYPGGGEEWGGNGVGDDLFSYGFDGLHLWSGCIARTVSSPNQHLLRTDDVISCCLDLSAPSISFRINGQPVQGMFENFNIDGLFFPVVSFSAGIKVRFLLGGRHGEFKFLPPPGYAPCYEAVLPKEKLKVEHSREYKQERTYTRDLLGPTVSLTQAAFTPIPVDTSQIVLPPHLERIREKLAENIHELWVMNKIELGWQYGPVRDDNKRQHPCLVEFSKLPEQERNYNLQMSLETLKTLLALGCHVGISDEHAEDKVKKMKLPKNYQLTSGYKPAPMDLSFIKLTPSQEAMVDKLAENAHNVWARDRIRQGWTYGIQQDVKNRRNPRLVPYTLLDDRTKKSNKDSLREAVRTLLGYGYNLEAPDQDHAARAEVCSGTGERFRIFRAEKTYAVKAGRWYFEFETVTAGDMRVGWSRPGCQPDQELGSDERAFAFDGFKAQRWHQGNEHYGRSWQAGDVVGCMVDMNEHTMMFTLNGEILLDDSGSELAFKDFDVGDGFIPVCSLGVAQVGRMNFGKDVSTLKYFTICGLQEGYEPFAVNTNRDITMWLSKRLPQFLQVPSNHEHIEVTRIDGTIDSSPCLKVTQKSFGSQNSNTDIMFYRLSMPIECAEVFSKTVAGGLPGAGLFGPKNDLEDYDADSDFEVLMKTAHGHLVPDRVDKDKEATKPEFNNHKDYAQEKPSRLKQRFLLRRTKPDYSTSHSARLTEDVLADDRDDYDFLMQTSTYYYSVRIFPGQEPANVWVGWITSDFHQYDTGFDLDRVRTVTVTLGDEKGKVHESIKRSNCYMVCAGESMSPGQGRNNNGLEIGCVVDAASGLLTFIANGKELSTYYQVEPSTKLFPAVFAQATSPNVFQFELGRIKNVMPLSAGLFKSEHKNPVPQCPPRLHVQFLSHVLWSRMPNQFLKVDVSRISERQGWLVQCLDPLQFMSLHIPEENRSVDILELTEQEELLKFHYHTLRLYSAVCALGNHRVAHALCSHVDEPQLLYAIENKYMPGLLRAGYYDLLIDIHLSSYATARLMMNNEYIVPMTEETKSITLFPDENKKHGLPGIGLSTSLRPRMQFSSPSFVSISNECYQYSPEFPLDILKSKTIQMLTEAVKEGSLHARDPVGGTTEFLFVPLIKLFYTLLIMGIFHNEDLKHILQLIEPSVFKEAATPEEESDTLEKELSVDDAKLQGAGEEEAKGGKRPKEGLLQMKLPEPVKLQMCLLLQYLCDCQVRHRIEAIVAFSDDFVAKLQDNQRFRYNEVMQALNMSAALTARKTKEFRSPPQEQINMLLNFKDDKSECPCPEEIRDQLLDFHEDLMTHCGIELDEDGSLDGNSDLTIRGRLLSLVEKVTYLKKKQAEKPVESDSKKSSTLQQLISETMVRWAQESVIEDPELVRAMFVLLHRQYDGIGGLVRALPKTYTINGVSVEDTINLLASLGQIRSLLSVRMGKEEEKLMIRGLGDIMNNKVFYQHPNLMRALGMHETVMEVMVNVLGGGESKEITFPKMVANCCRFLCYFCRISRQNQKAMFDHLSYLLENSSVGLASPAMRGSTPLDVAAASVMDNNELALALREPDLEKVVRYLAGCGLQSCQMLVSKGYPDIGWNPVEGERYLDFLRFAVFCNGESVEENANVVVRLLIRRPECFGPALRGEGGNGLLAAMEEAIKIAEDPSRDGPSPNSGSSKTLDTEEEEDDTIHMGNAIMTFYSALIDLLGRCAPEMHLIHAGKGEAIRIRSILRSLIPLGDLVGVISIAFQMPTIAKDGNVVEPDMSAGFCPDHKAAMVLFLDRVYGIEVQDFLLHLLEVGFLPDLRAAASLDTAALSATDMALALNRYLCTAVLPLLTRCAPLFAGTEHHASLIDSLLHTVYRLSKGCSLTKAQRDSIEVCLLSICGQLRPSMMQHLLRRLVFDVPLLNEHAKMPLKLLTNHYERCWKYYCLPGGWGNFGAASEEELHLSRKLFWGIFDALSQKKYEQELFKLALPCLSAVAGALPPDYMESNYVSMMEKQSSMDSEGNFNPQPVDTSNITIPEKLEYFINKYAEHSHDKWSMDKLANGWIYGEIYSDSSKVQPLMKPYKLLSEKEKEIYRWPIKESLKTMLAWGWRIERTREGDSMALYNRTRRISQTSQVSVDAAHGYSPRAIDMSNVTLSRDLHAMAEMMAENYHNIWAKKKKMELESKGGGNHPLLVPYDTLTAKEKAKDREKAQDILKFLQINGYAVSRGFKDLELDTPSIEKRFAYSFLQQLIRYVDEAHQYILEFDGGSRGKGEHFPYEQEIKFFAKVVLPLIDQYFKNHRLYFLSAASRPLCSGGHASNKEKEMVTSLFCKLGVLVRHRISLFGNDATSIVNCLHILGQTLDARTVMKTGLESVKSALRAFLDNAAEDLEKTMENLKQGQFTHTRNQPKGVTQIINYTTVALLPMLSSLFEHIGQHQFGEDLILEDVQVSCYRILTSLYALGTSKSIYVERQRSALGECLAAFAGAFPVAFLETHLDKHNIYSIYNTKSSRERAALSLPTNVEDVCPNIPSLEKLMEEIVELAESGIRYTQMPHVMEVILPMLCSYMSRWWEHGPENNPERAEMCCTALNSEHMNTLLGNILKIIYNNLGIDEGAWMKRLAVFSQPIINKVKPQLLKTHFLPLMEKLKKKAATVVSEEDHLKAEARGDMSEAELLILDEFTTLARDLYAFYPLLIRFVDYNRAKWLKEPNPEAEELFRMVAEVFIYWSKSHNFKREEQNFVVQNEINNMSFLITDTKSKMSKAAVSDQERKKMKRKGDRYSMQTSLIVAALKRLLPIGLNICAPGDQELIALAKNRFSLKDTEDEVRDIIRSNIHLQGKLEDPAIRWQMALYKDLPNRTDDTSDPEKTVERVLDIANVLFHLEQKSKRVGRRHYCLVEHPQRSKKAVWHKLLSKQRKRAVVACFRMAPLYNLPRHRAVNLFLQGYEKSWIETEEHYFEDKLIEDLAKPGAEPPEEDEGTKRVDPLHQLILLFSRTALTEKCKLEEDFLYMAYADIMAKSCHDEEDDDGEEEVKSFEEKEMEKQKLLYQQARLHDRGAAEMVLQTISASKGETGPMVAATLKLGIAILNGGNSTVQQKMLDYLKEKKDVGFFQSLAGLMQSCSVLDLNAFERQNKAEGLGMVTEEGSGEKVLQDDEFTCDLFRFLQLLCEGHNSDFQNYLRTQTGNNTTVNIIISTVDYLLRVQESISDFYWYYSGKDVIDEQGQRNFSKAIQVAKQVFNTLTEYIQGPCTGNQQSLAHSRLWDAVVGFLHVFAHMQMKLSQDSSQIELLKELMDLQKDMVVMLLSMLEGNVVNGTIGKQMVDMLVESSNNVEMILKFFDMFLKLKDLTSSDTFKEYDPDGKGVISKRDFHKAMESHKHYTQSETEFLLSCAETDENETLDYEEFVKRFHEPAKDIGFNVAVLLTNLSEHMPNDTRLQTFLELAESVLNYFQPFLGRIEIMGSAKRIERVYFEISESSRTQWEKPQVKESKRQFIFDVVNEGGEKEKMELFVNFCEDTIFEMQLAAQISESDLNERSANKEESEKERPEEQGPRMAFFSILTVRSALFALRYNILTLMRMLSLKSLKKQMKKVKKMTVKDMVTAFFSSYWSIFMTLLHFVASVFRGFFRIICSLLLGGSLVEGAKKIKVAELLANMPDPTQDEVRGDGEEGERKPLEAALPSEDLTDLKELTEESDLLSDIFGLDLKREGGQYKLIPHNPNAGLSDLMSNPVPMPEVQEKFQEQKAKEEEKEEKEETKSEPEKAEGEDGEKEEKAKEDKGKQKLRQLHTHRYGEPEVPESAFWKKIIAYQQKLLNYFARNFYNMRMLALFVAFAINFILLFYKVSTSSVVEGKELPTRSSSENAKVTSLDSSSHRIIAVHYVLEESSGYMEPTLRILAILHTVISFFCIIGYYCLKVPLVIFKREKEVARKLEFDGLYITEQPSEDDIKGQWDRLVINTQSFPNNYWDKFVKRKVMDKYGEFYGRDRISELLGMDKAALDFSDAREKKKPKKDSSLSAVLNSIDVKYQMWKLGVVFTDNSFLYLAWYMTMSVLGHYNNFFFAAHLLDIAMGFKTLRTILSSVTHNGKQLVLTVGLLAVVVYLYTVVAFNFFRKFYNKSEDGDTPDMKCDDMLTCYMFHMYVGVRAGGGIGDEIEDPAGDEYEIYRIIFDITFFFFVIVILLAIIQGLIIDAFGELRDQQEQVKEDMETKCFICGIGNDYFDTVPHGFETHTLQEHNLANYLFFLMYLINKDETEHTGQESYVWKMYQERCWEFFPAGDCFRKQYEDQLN
GST–LL1 (RyR2 first luminal loop, residues 4521–4573): residues 4521-4573 of Q92736

In test [1] the target is recombinant human RyR2 expressed in HEK293 cells (human) (UniProt Q92736). The test can be described thus: co-IP; reverse experiment: RyR2 immunoprecipitated with Ab1093 from lysates of HEK293 cells co-expressing HA–CSQ2; HA–CSQ2 detected by immunoblot. For orientation: In western blotting, separated proteins are transferred to a membrane and probed.
Test [2] deals with GST–LL1 (RyR2 first luminal loop, residues 4521–4573) (human) (UniProt Q92736). The test can be described thus: pull-down; purified GST-fusion protein (1 µM) captured on glutathione Sepharose, incubated with CHAPS-solubilised HEK293 lysate expressing HA–CSQ2; immunoblot with anti-HA; only the target purified.

These are yes or no findings as the source states them, for the method shown. In cells and extracts the contact can be indirect. Some results given as binding are weak or reduced against the parent protein; the word gives no strength. Where a sequence is shown, tags or fusion partners need not be part of it.

B1: HA–CSQ2 (hemagglutinin-tagged human calsequestrin 2) (protein, UniProt O14958 20-399)
chain: EEGLNFPTYDGKDRVVSLSEKNFKQVLKKYDLLCLYYHEPVSSDKVTQKQFQLKEIVLELVAQVLEHKAIGFVMVDAKKEAKLAKKLGFDEEGSLYILKGDRTIEFDGEFAADVLVEFLLDLIEDPVEIISSKLEVQAFERIEDYIKLIGFFKSEDSEYYKAFEEAAEHFQPYIKFFATFDKGVAKKLSLKMNEVDFYEPFMDEPIAIPNKPYTEEELVEFVKEHQRPTLRRLRPEEMFETWEDDLNGIHIVAFAEKSDPDGYEFLEILKQVARDNTDNPDLSILWIDPDDFPLLVAYWEKTFKIDLFRPQIGVVNVTDADSVWMEIPDDDDLPTAEELEDWIEDVLSGKINTEDDDEDDDDDDNSDEEDNDDSDDDDDE
Consider B1, for which the binding entry in test [1] and in test [2] was “binds” throughout.
